# In PMC12539210:
# Chains of the proteins cited; added tags and fusions are not shown. Lines headed by an entry give the natural chain unless they say otherwise; changes in a name come on top. A line that says so, or that is headed by a name, gives the form on record, which may keep a tag or linker.
# UniProt O00429: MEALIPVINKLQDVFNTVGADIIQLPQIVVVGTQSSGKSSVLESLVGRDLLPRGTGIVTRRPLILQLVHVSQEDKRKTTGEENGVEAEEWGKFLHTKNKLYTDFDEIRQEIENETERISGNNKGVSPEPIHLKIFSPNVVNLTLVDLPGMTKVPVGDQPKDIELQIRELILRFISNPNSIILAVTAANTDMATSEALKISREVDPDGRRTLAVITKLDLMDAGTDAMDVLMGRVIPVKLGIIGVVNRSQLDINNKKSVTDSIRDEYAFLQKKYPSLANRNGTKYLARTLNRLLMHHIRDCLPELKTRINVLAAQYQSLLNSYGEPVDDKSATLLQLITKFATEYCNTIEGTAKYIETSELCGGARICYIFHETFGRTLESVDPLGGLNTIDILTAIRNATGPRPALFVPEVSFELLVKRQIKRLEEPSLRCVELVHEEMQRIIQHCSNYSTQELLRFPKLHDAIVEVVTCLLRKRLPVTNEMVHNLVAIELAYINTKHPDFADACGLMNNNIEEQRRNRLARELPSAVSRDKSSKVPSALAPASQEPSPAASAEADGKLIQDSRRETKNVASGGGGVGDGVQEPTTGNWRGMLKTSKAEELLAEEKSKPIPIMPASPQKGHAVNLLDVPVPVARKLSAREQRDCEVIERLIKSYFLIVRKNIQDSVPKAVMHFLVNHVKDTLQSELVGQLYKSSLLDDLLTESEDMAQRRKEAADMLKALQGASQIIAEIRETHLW
# V5-tagged DRP1 (mouse pEF6-DRP1) (Q8K1M6, form named): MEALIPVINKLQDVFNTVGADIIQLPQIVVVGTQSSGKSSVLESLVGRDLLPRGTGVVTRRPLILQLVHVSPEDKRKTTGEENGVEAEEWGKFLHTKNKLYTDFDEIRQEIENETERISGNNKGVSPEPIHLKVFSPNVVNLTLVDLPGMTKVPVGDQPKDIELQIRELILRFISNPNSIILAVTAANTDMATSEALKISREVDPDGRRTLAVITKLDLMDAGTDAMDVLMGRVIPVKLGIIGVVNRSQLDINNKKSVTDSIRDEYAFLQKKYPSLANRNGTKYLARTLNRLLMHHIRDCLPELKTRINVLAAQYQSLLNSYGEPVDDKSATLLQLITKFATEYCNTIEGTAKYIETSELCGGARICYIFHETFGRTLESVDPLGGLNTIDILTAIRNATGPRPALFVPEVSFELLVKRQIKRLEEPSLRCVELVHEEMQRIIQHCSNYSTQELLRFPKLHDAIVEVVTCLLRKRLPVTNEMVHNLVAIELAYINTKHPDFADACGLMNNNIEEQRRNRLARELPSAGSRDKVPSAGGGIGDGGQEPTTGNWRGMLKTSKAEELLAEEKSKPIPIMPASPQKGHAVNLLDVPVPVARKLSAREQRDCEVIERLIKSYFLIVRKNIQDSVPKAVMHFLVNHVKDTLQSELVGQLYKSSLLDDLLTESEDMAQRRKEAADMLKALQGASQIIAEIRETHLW
# No constants are given. Whether binding was seen depends on the method and setting. Binding seen in cells or lysates may run through a third protein. Some entries that bind do so weakly or less than the wild type. Sequences can lack the tags named with a protein.
# B1: histone deacetylase 7 (HDAC7), endogenous in THP1 cells (enzyme, UniProt Q8WUI4 1-952)
# chain: MDLRVGQRPPVEPPPEPTLLALQRPQRLHHHLFLAGLQQQRSVEPMRLSMDTPMPELQVGPQEQELRQLLHKDKSKRSAVASSVVKQKLAEVILKKQQAALERTVHPNSPGIPYRTLEPLETEGATRSMLSSFLPPVPSLPSDPPEHFPLRKTVSEPNLKLRYKPKKSLERRKNPLLRKESAPPSLRRRPAETLGDSSPSSSSTPASGCSSPNDSEHGPNPILGSEALLGQRLRLQETSVAPFALPTVSLLPAITLGLPAPARADSDRRTHPTLGPRGPILGSPHTPLFLPHGLEPEAGGTLPSRLQPILLLDPSGSHAPLLTVPGLGPLPFHFAQSLMTTERLSGSGLHWPLSRTRSEPLPPSATAPPPPGPMQPRLEQLKTHVQVIKRSAKPSEKPRLRQIPSAEDLETDGGGPGQVVDDGLEHRELGHGQPEARGPAPLQQHPQVLLWEQQRLAGRLPRGSTGDTVLLPLAQGGHRPLSRAQSSPAAPASLSAPEPASQARVLSSSETPARTLPFTTGLIYDSVMLKHQCSCGDNSRHPEHAGRIQSIWSRLQERGLRSQCECLRGRKASLEELQSVHSERHVLLYGTNPLSRLKLDNGKLAGLLAQRMFVMLPCGGVGVDTDTIWNELHSSNAARWAAGSVTDLAFKVASRELKNGFAVVRPPGHHADHSTAMGFCFFNSVAIACRQLQQQSKASKILIVDWDVHHGNGTQQTFYQDPSVLYISLHRHDDGNFFPGSGAVDEVGAGSGEGFNVNVAWAGGLDPPMGDPEYLAAFRIVVMPIAREFSPDLVLVSAGFDAAEGHPAPLGGYHVSAKCFGYMTQQLMNLAGGAVVLALEGGHDLTAICDASEACVAALLGNRVDPLSEEGWKQKPNLNAIRSLEAVIRVHSKYWGCMQRLASCPDSWVPRVPGADKEEVEAVTALASLSVGILAEDRPSEQLVEEEEPMNL
# B2: HDAC6-V5 (pEF6-HDAC6-V5) (enzyme, UniProt Q9Z2V5 1-1149)
# chain: MTSTGQDSSTRQRKSRHNPQSPLQESSATLKRGGKKCAVPHSSPNLAEVKKKGKMKKLSQPAEEDLVVGLQGLDLNPETRVPVGTGLVFDEQLNDFHCLWDDSFPESPERLHAIREQLILEGLLGRCVSFQARFAEKEELMLVHSLEYIDLMETTQYMNEGELRVLAETYDSVYLHPNSYSCACLATGSVLRLVDALMGAEIRNGMAVIRPPGHHAQHNLMDGYCMFNHLAVAARYAQKKHRIQRVLIVDWDVHHGQGTQFIFDQDPSVLYFSIHRYEHGRFWPHLKASNWSTIGFGQGQGYTINVPWNQTGMRDADYIAAFLHILLPVASEFQPQLVLVAAGFDALHGDPKGEMAATPAGFAHLTHLLMGLAGGKLILSLEGGYNLRALAKGVSASLHTLLGDPCPMLESCVVPCASAQTSIYCTLEALEPFWEVLERSVETQEEDEVEEAVLEEEEEEGGWEATALPMDTWPLLQNRTGLVYDEKMMSHCNLWDNHHPETPQRILRIMCHLEEVGLAARCLILPARPALDSELLTCHSAEYVEHLRTTEKMKTRDLHREGANFDSIYICPSTFACAKLATGAACRLVEAVLSGEVLNGIAVVRPPGHHAEPNAACGFCFFNSVAVAARHAQIIAGRALRILIVDWDVHHGNGTQHIFEDDPSVLYVSLHRYDRGTFFPMGDEGASSQVGRDAGIGFTVNVPWNGPRMGDADYLAAWHRLVLPIAYEFNPELVLISAGFDAAQGDPLGGCQVTPEGYAHLTHLLMGLAGGRIILILEGGYNLASISESMAACTHSLLGDPPPQLTLLRPPQSGALVSISEVIQVHRKYWRSLRLMKMEDKEECSSSRLVIKKLPPTASPVSAKEMTTPKGKVPEESVRKTIAALPGKESTLGQAKSKMAKAVLAQGQSSEQAAKGTTLDLATSKETVGGATTDLWASAAAPENFPNQTTSVEALGETEPTPPASHTNKQTTGASPLQGVTAQQSLQLGVLSTLELSREAEEAHDSEEGLLGEAAGGQDMNSLMLTQGFGDFNTQDVFYAVTPLSWCPHLMAVCPIPAAGLDVSQPCKTCGTVQENWVCLTCYQVYCSRYVNAHMVCHHEASEHPLVLSCVDLSTWCYVCQAYVHHEDLQDVKNAAHQNKFGEDMPHSH
# Assays:
# [1] = biological target: dynamin-related protein 1 (DRP1), endogenous in THP1 cells (human (endogenous in THP1)) (UniProt O00429); experiment: co-IP; PMA-differentiated THP1 cells cross-linked with 1% formaldehyde for 10 min, lysed in RIPA buffer; IP with anti-DRP1 or isotype control antibody, protein G Dynabeads; immunoblot of endogenous proteins
# [2] = biological target: V5-tagged DRP1 (mouse pEF6-DRP1) (mouse) (UniProt Q8K1M6); experiment: co-IP; HEK293T cells co-transfected for 24 h, lysed in RIPA buffer with benzonase; IP with anti-DRP1 antibody, protein G Dynabeads; immunoblot with anti-V5
Binder,binding [1],binding [2]
B1,binds,
B2,,binds
